Measured values as given in PubChem BioAssay AID1347075 (National Center for Advancing Translational Sciences (NCATS), 2019).
The whole screen tested about 400,000 compounds, of which about 5,500 (1.4%) were called active. Inconclusive means that the source gave no clear call. Such entries were picked first, then a sample of the others. The call rests on the fitted dose curve; in most records, active means well fitted cell-killing curve with a large enough effect; inconclusive means small, poorly fitted or top-dose-only effect, or effect the other way; inactive means flat fitted curve, though single readings scatter. A potency beside an inconclusive call is a rough fit, not a confirmed value.

test: qHTS assay for MDR1-selective chemotherapeutics: Primary screen using the parental adenocarcinoma cell KB-3-1; conditions: KB-3-1 viability, CellTiter-Glo ATP luminescence, 72 h; activity change, negative = cytotoxic: at 46.1 µM (top of the series); further: nearly all actives have a fitted effect of over 60% in size
Procedure, shortened: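 Viability of parental KB-3-1 cells, measured by CellTiter-Glo luminescence, followed a 72 h incubation at 37 °C with pinned compounds in phenol-red-free DMEM containing 10% FBS.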
On the % scale 0 is the no-effect control and ±100 the full control effect; potency means the concentration at half of the fitted maximal effect.

Compound | Potency | activity change, negative = cytotoxic
O=C(Nc1ccc(-c2csc(Nc3ccccc3)n2)cc1)c1ccccc1 | inconclusive: 20.6 µM [cytotoxic, partial curve] | 
NC(=O)c1ccc(NC(=O)CN2C(=O)NC3(CCCCCCC3)C2=O)cc1 | inconclusive: 29.1 µM [rising, single point] | 
O=C1c2ccccc2[C@@H]2C[C@@H](O)[C@H](Nc3cccc4ccccc34)CCN12 |  | inactive: 0%
COc1ccccc1Cn1c(/C=C/c2ccccc2)nc2ccccc21 | active: 16.4 µM | 
COc1ccccc1CNC(=O)CC(c1ccc(C)cc1)N1Cc2ccccc2C1=O (stereo unspecified) |  | inactive: -7.49%
CC(CCc1ccccc1)NC(=O)c1ccc(-n2cncn2)c([N+](=O)[O-])c1 (stereo unspecified) |  | inactive: -6.44%
CCOc1ccc2[nH]c(C(=O)N/N=C/c3cccc(OC)c3OC)cc2c1 | inconclusive: 20.6 µM [cytotoxic, single point] | 
Cc1nnc(NCc2n[nH]c(=O)c3ccccc23)c2ccccc12 | inconclusive: 29.1 µM [cytotoxic, single point] | 
COc1ccc(-c2ccnc(-c3ccc(O)cc3)n2)cc1 | active: 5.8 µM | 
Cc1ccc(S(=O)(=O)/C=C2\OCc3ccccc32)cc1 |  | inactive: 8.94%
COC(=O)CSc1nc2sc3c(c2c(=O)n1-c1ccccc1C)CC(C)(C)OC3 |  | inactive: 17.3%
O=C(N/N=C/c1cc([N+](=O)[O-])ccc1O)C12CC3CC(CC(C3)C1)C2 | inconclusive: 29.1 µM [cytotoxic, single point] | 
COc1cccc(N2CC(C(=O)N3CCC4(CC3)CC(=O)c3ccccc3O4)CC2=O)c1 (stereo unspecified) | inconclusive: 23.1 µM [cytotoxic, single point] | 
CCOc1ccc(/C=N/NC(N)=S)cc1 | inconclusive: 23.1 µM [cytotoxic, single point] | 
Cc1oc(-c2ccc(C(=O)NCCC(C)C)cc2)nc1CN1CCc2ccccc21 | active: 7.31 µM | 
CCOC(=O)CN1N=C(/C=C/c2ccc(C(C)C)cc2)CCC1=O | active: 7.31 µM | 
CCc1ccc(NS(=O)(=O)c2cc(-c3cnc(C4CC4)o3)ccc2C)cc1 |  | inactive: -17.1%
CNC(=S)NNC(=O)c1sc(-c2cc(C)on2)nc1C | inconclusive: 1.84 µM [cytotoxic, full curve] | 
COc1ccc(CCNC(=O)C2CCCN(S(=O)(=O)N3CC(C)CC(C)C3)C2)cc1OC (stereo unspecified) |  | inactive: -14.5%
Cc1ccc(C2=Nc3ccccc3N=C(C(Cl)Cl)C2)cc1 | inconclusive: 29.1 µM [cytotoxic, single point] | 
COc1cc(C(=O)NC(c2ccc(Cl)cc2)c2cc(Cl)c3cccnc3c2O)cc(OC)c1OC (stereo unspecified) | inconclusive: 1.46 µM [cytotoxic, full curve, poor fit] | 

Compound | Potency | activity change, negative = cytotoxic
CC1CCC(NC(=O)c2cc3c(s2)CCCC3)CC1 (stereo unspecified) |  | inactive: -4.14%
CCc1cccc(C)c1NC(=O)CN1CCCN(Cc2ccccc2Cl)S1(=O)=O | inconclusive: 0.206 µM [cytotoxic, full curve] | 
CN(CCCNC(=O)c1cccn2c(=O)c3ccccc3nc12)Cc1ccccc1 | inconclusive: 20.6 µM [cytotoxic, single point] | 
CCOc1ccccc1NC(=O)C(CC)n1c(C(=O)OC)cc2occc21 (stereo unspecified) |  | inactive: -16.7%
COc1cc(C2c3c(-c4ccccc4O)n[nH]c3C(=O)N2Cc2ccco2)ccc1OCC(C)C (stereo unspecified) | inconclusive: 29.1 µM [cytotoxic, single point] | 
COc1ccccc1CNC(=O)C1(NC(=O)Nc2ccc(C)cc2)CCCCC1 | inconclusive: 29.1 µM [cytotoxic, single point] | 
CCOC(=O)N1CCN(S(=O)(=O)c2ccc(C(=O)NNc3nc4ccc(Cl)cc4s3)cc2)CC1 | inconclusive: 2.31 µM [cytotoxic, full curve] | 
O=C(NNC(=S)Nc1ccccc1)c1cccnc1 | inconclusive: 32.6 µM [rising, single point] | 
O=C(COC(=O)c1cccc(S(=O)(=O)N2CCCC2)c1)Nc1ccccc1C(F)(F)F |  | inactive: 4.36%
COc1ccc(C(NC(C)=O)c2ccc3cccnc3c2O)cc1OC (stereo unspecified) | inconclusive: 7.31 µM [cytotoxic, partial curve] | 
Cc1cc(C)nc(NC(N)=NCCc2c[nH]c3ccccc23)n1 | inconclusive: 29.1 µM [cytotoxic, single point] | 
Cc1cc(NC(=O)/C=C/c2ccccc2Cl)n(-c2nc3ccccc3[nH]2)n1 | inconclusive: 29.1 µM [cytotoxic, single point] | 
COCCC(=O)N1CCC(Oc2ccc(C(=O)NC3Cc4ccccc4C3)cc2)CC1 |  | inactive: -7.9%
CC[n+]1c(/C=C2/C=C(C)CC(C)C2)sc2ccccc21 (stereo unspecified) | inconclusive: 20.6 µM [cytotoxic, single point] | 
COc1ccc(-c2cc(C(=O)N3CCCC3)no2)cc1 |  | inactive: -13.1%
Cc1cccc(N2CCN(C(=O)CC(NC(=O)c3ccccc3)c3ccccc3)CC2C)c1 (stereo unspecified) | inconclusive: 16.4 µM [cytotoxic, single point] | 
O=c1c(/C=N/OCc2ccc(Cl)cc2Cl)c[nH]n1-c1cccc(Cl)n1 | inconclusive: 29.1 µM [cytotoxic, single point] | 
COc1ccccc1NS(=O)(=O)c1cccc(C(=O)N/N=C/c2ccc(N3CCOCC3)cc2)c1 | inconclusive: 18.4 µM [rising, single point] | 
CCc1c(C)c(C#N)c2nc3ccccc3n2c1NCCOC | inconclusive: 0.461 µM [cytotoxic, full curve, poor fit] | 
O=C(c1cccc(S(=O)(=O)Nc2ccccc2Cl)c1)N1CCC1 |  | inactive: -14.8%
CCN1CCN(CCCNC(=O)c2ccc3c(Cl)c4c(nc3c2)CCCC4)CC1 | inconclusive: 18.4 µM [cytotoxic, single point] | 

Compound | Potency | activity change, negative = cytotoxic
N#C/C(=C(/O)CCl)c1nc2ccccc2[nH]1 | inconclusive: 29.1 µM [cytotoxic, single point] | 
COc1ccccc1N1C(C)=CC(=C(C#N)c2nc3ccccc3s2)C=C1C | inconclusive: 29.1 µM [cytotoxic, single point] | 
Cc1ccc(NC(=O)Cn2c(=O)n(CCCCC(=O)NCc3ccccc3Cl)c(=O)c3ccccc32)cc1 |  | inactive: 0.77%
O=C(CCCN1CCC(C(=O)c2ccc(F)cc2)CC1)c1ccc(F)cc1 |  | inactive: -7.47%
COc1ccccc1OCC(=O)NCC(c1ccc(Cl)cc1)N1CCOCC1 (stereo unspecified) |  | inactive: 20.2%
CCOc1ccc(CN=C(N)N=C(N)N)cc1Cl | inconclusive: 23.1 µM [cytotoxic, single point] | 
CCc1nc2ccc(C(=O)N3CCN(C(=O)c4ccco4)CC3)cn2c1N(C)Cc1cccs1 |  | inactive: 0%
Cc1ccc(NC(=O)C(=O)NCc2ccco2)cc1 | inconclusive: 10.3 µM [rising, partial curve] | 
COc1cc([N+](=O)[O-])cc(/C=N/NC(=O)Cn2nc(C)cc2C)c1O | inconclusive: 29.1 µM [cytotoxic, single point] | 
COC(=O)c1cc2sc(Cl)cc2n1Cc1cc(C)ccc1C |  | inactive: 8.59%
O=C(/C=C\c1cccs1)c1c(O)ccc2ccc(=O)oc12 | inconclusive: 16.4 µM [cytotoxic, single point] | 
COc1ccc(C2=Nn3c(nnc3-c3ccccc3OC)SC2)cc1OCC1CC1 | inconclusive: 20.6 µM [cytotoxic, single point] | 
CCOc1ncccc1C(=O)Nc1cc(S(=O)(=O)N(CC)CC)ccc1N1CCOCC1 | inconclusive: 23.1 µM [cytotoxic, partial curve, poor fit] | 
Cc1ccc(-n2nc3c(=O)n(CC(=O)NCC(C)c4ccccc4)nc(C)c3c2C)cc1 (stereo unspecified) |  | inactive: -8.64%
S=c1ncc2n[nH]nc2[nH]1 | inconclusive: 18.4 µM [rising, single point] | 
CCOC(=O)c1cnc(SC)nc1NCCOC | inconclusive: 29.1 µM [rising, single point] | 
FC(F)(F)C1=CC(c2ccccc2)=NCCN1 |  | inactive: 3.7%
CCCc1nc2ccccc2c(C(=O)OCC(=O)Nc2ccc(S(=O)(=O)N3CCOCC3)cc2)c1CC | inconclusive: 23.1 µM [cytotoxic, single point] | 
Cn1ncc2c(Nc3ccc4ccccc4c3)ncnc21 |  | inactive: 14.8%
Cc1onc(-c2ccccc2)c1C(=O)NC(=S)NNC(=O)c1ccco1 | inconclusive: 29.1 µM [cytotoxic, single point] | 
CN1CCc2cc3c(c4c2[C@H]1[C@H](O)c1ccccc1-4)OCO3 |  | inactive: 2.01%

Among those listed so far, three contain a nitro group on carbon:
Compound | Potency | activity change, negative = cytotoxic
CC(CCc1ccccc1)NC(=O)c1ccc(-n2cncn2)c([N+](=O)[O-])c1 (stereo unspecified) |  | inactive: -6.44%
O=C(N/N=C/c1cc([N+](=O)[O-])ccc1O)C12CC3CC(CC(C3)C1)C2 | inconclusive: 29.1 µM [cytotoxic, single point] | 
COc1cc([N+](=O)[O-])cc(/C=N/NC(=O)Cn2nc(C)cc2C)c1O | inconclusive: 29.1 µM [cytotoxic, single point] | 

Next part.

Compound | Potency | activity change, negative = cytotoxic
CC(C)c1ccc(/C=N/NC(=O)c2nnn(-c3nonc3N)c2CSC2=NCCS2)cc1 | inconclusive: 29.1 µM [cytotoxic, single point] | 
COc1c(C(CC(C)C)OC(C)=O)ccc2c1C(=O)OCc1cc(C)cc(O)c1O2 (stereo unspecified) | inconclusive: 29.1 µM [cytotoxic, single point] | 
Cc1ccc(CNc2nc3cc(-c4ccccc4C)sc3c(=O)n2C)c(C)c1 |  | inconclusive: -16.1%
Oc1ccccc1C(Nc1nccs1)c1ccc2cccnc2c1O (stereo unspecified) | active: 2.31 µM | 
Cc1cccc(N2CCN(C(=O)c3cc(C)oc3C)CC2C)c1 (stereo unspecified) | active: 18.4 µM | 
COc1ccc(Nc2nccc(-c3cccc(N)c3)n2)cc1 | inconclusive: 23.1 µM [cytotoxic, partial curve, poor fit] | 
CCOc1ccc(NC(=O)CN(C)C(=O)c2ccncc2)cc1OCC |  | inactive: -26.4%
CCN(CCNc1ccc(Cl)cc1[N+](=O)[O-])C(=O)c1cc([N+](=O)[O-])c(N(C)C)cc1OC | inconclusive: 23.1 µM [cytotoxic, partial curve, poor fit] | 
Cc1cccc(C)c1N(CC(=O)N1CCN(C)CC1)S(C)(=O)=O |  | inactive: -2.83%
OC1COC(c2ccccc2)OC1C(O)C1OC(c2ccccc2)OCC1O (stereo unspecified) | inconclusive: 10.3 µM [rising, partial curve, poor fit] | 
COc1ccccc1N1CCN(C(=O)c2ccc(Cl)c(S(=O)(=O)NCc3ccco3)c2)CC1 | active: 7.08 µM | 
CC(=O)n1cc(N(C(=O)CCl)c2ccccc2)c2ccccc21 | inconclusive: 20.6 µM [cytotoxic, single point] | 
COc1ccc(N(CC(=O)NCc2ccco2)C(=O)CCC(=O)Nc2nccs2)cc1 | inconclusive: 29.1 µM [rising, partial curve, poor fit] | 
Cc1cccc(CN2CCN([C@H]3CS(=O)(=O)N[C@@H]3COCc3ccccc3)CC2)c1 | inconclusive: 29.1 µM [cytotoxic, single point] | 
C/C(=N/NC(=O)c1ccc(C)nc1)c1ccc2c(c1)CCCC2 | inconclusive: 18.4 µM [cytotoxic, single point] | 
COc1ccc(NC(=O)n2ncc3c(C)cccc32)cc1 | inconclusive: 0.0046 µM [cytotoxic, full curve, poor fit] | 
Cc1ccc(-c2nn3c(C)nnc3s2)cc1NC(=O)c1ccc(-c2cccc(Cl)c2)o1 | inconclusive: 29.1 µM [cytotoxic, partial curve, poor fit] | 
COc1cccc(/C(O)=C/c2nc3ccc(C(=O)NCCc4ccc(Cl)cc4)cc3[nH]c2=O)c1 | active: 20.6 µM | 
